The structures appear in SMILES notation. Hit rate of the full screen: of about 210,000 compounds, about 5,900 (2.8%) were called active. Inconclusive results (about 5%) are left out. The call rests on the fitted dose curve; in most records, active means well fitted activation curve with a large enough effect; inconclusive means small, poorly fitted or top-dose-only effect; inactive means no such curve, though single readings can be large or run the other way. Only a part is listed here, and it is no random draw. The source gives no active or inactive call for entries shown without one.

The text below walks through data of PubChem BioAssay AID1458 (National Center for Advancing Translational Sciences (NCATS), 2008).
Potency means the concentration at half of the fitted maximal effect.

The assay can be described thus: qHTS Assay for Enhancers of SMN2 Splice Variant Expression. Further: nearly all actives have a fitted effect of over 55% in size. On activity change, positive = activation: % of control where 0% means no effect. The conditions noted are these: HEK293 SMN2-luciferase splicing reporter, luminescence, 30-36 h; activity change, positive = activation: at 46.1 µM (top of the series) unless noted. Put shortly:
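qHTS luciferase splicing reporter: luminescence rises when SMN2 exon 7 is included in transfected HEK293 cells. Compound exposure lasted 30-36 h at 37C, with 4.5 mM final sodium butyrate as control, followed by a ONE-Glo read.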
`O=c1[nH]c(N/N=C/c2ccccc2)nc2ccccc12`: the Potency was active: 14.1 µM.

With `N#Cc1c(NC(=O)c2ccccc2)sc2c1CCCCC2`, the Potency is active: 0.631 µM.

Regarding `CO/N=C(\C(=O)N[C@@H]1C(=O)N2C(C(=O)O)=C(COC(C)=O)CS[C@H]12)c1csc(N)n1` (stereo in doubt), the activity change, positive = activation was -11.5%.

As to `CCNC(=S)N(CCc1c(C)[nH]c2ccc(C)cc12)Cc1cccs1`, the “activity change, positive = activation” value is inactive: -109%.

For the compound `Oc1c(Cl)cc(Cl)cc1C=Nc1ccc2c(c1)OCCO2`, the activity change, positive = activation is 26.8%.

In the case of `O=C(Nc1cnc2ccccc2c1)c1ccco1`, the Potency is active: 14.1 µM.

In the case of `CC(=O)Nc1ccc(NC(=O)C(C)OC(=O)C2(c3ccc(F)cc3)CCCC2)cc1` (centres undefined), the “activity change, positive = activation” value was inactive: -72.7%.

In the case of `O=C(c1ccco1)N1CCN(c2nc(-c3ccc(F)cc3)cs2)CC1`, the activity change, positive = activation is -35%.

On to `Cc1ccc(NC(=O)/C(=C/c2ccncc2)NC(=O)c2ccccc2)cc1`, for which the activity change, positive = activation amounted to 49.2%.

In the case of `CCN(C(=O)c1cc2c(s1)-c1ccccc1OC2)c1cc(Cl)ccc1OC`, the “activity change, positive = activation” value is inactive: -58.6%.

On to `S=c1[nH]cnc2sc(-c3ccccc3)cc12`, for which the activity change, positive = activation is 33.3%.

Consider `C=CCOc1ccc2nc(NC(=O)OC)[nH]c2c1`, for which the Potency is active: 11.2 µM.

As for `CN(C)/C=C1\Oc2ccc3ccccc3c2C1=O`, the Potency was active: 17.8 µM.

As to `Cc1cccc(NC(=O)/C=C/c2ccc3c(c2)OCO3)n1`, the Potency was active: 2.24 µM.

For the compound `Cc1[nH]c2c(Cl)cccc2c(=O)c1CN1CCCC1`, the activity change, positive = activation stood at 36.4%.

In the case of `CN1c2ccccc2C(C)(C)C12CC(c1ccc(Cl)c(S(=O)(=O)N3CCCC3)c1)=NO2` (centres undefined), the activity change, positive = activation turned out to be 106%.

Turning to `CC(=O)c1ccc(N2CCCC2)c(F)c1`, the activity change, positive = activation was found to be 30.8%.

For the compound `Cn1cc(-c2nnc(-c3ccccc3)o2)c2ccccc21`, the Potency is active: 2.51 µM.

Turning to `O=C(NCCc1nc2ccccc2[nH]1)c1ccc(F)cc1`, the activity change, positive = activation was determined as 37.1%.

In the case of `Cc1cc(Cl)ccc1OCc1nc(-c2ccncc2)no1`, the Potency was active: 12.6 µM.

For the compound `Clc1ccc(-c2cn3nc4c(nc3n2)CCCC4)cc1`, the Potency was active: 1.78 µM.

Turning to `CNc1ccccc(-c2ccc3cc4c(cc3n2)OCO4)c1=O`, the activity change, positive = activation is 173%.

As for `O=C(c1cc2ccccc2oc1=O)N1CCN(c2ccccn2)CC1`, the activity change, positive = activation came out at 57.9%.

Consider `CCOC(=O)c1ccc(NC(=O)CC2C(=O)N(c3ccc(F)cc3)C(=O)N2Cc2ccc3c(c2)OCO3)cc1` (centres undefined), for which the “activity change, positive = activation” value is inactive: -50.7%.

Take `COc1ccc(OC)c(S(=O)(=O)Nc2ccc(F)cc2)c1`: the activity change, positive = activation was 41.4%.

Consider `CCCCOC(=O)NC1(C)CCS(=O)(=O)C1` (centres undefined), for which the activity change, positive = activation stood at 20.6%.

For the compound `CN(c1ccc(OCc2nnc(-c3ccccc3)o2)cc1)S(=O)(=O)c1ccccc1`, the activity change, positive = activation is -42.4%.

Regarding `Fc1ccccc1NC(=S)Nc1ccc(CN2CCOCC2)cc1`, the activity change, positive = activation is -16.6%.

`C/C(N)=C(/C#N)C(=O)CSc1nc2ccccc2c(=O)n1-c1ccccc1C`: the “activity change, positive = activation” value is inactive: -56.7%.

For the compound `O=C(Nc1ccc(NC(=O)c2cccs2)cc1Cl)c1ccco1`, the activity change, positive = activation amounted to 76.4%.

Take `CCOC(=O)c1ccc(-n2[nH]c(-c3ccccc3)cc2=O)cc1`: the “activity change, positive = activation” value is inactive: -72.8%.

Regarding `Cc1nc(-n2[nH]c3c(c2=O)CCCC3)[nH]c(=O)c1Cc1ccccc1`, the activity change, positive = activation is -78.7%.

Turning to `COc1ccc(-n2c(O)c(C=Nc3ccccc3)c3ccccc3c2=O)cc1`, the “activity change, positive = activation” value is inactive: -2.75%.

For the compound `Cc1cccc(NS(=O)(=O)c2ccc(C3CCCCC3)cc2)c1`, the “activity change, positive = activation” value is inactive: -38.4%.

Take `CCOCCOCCC(C(=O)O)P(=O)(c1ccccc1)c1ccccc1` (centres undefined): the activity change, positive = activation was determined as 15.9%.

Consider `C/C(=N\OC(=O)c1cccc(Cl)c1)c1sc(C)nc1C`, for which the activity change, positive = activation is -53.4%.

On to `Cc1ccc(/C=N/NC(=O)CSc2nnc(-c3ccc(Cl)cc3)n2-c2ccccc2)o1`, for which the activity change, positive = activation was -26.7%.

Take `Cc1scc(C(=O)N2CCN(S(C)(=O)=O)CC2)c1-c1ccccc1`: the activity change, positive = activation came to 47%.

On to `O=C1c2cccc(OCC(=O)N3CCCc4ccccc43)c2CCN1Cc1ccccc1`, for which the activity change, positive = activation is -84%.

Consider `CN1CCN(C(=O)c2cnn3c(C(F)(F)F)cc(-c4ccc5c(c4)OCO5)nc23)CC1`, for which the activity change, positive = activation is 33.5%.

For `O=C(O)c1cccc(-n2nnnc2SCc2ccccn2)c1`, the activity change, positive = activation came to 38.7%.

For the compound `O=C(C1CC(c2ccc(F)cc2)=NO1)N1CCCCC1` (centres undefined), the Potency was active: 28.2 µM.

Turning to `CCn1c(SCC(=O)N/N=C/C=C/c2ccco2)nnc1-c1ccccc1`, the “activity change, positive = activation” value was inactive: -40.9%.

In the case of `c1ccc(COc2ccc(OCCn3cncn3)cc2)cc1`, the Potency was active: 11.2 µM.

Consider `COc1ccc2nc(NC(=O)CSc3nc(C)cc(=O)[nH]3)sc2c1`, for which the activity change, positive = activation was 35.2%.

As to `CC(C)OC(=O)NCCOC(=O)Nc1cccc(Cl)c1`, the “activity change, positive = activation” value was inactive: -33.7%.

Regarding `C=CCN1C(=O)/C(=C/c2ccsc2)SC1=S`, the “activity change, positive = activation” value is inactive: -66.6%.

In the case of `CCCCN(C)C(=O)C1CCN(CCCc2ccccc2)CC1`, the activity change, positive = activation amounted to 31.7%.

Take `Cc1csc(NC(=O)c2ccc(OCC3CCCO3)cc2)n1` (centres undefined): the Potency was active: 1.41 µM.

With `Cc1cc(C)cc(NC(=S)NCCN(C2CCCCC2)C2CCCC2)c1`, the “activity change, positive = activation” value was inactive: -37.4%.

As to `CCn1c(SCC(=O)Nc2nonc2C)nnc1-c1ccco1`, the activity change, positive = activation came to 35.7%.

For the compound `CC(C)C(=O)N1CCN(c2ccc(NC(=O)c3ccc4c(c3)OCCO4)cc2Cl)CC1`, the “activity change, positive = activation” value was inactive: -40.9%.

Take `CCC(C)(C)NC(=O)C(c1cccn1C)N(Cc1ccc(C)cc1)C(=O)Cn1nnc2ccccc21` (centres undefined): the Potency was active: 15.8 µM.

Consider `CCn1c2ccccc2c2cc(CN3CCN(Cc4cc(OC)ccc4O)CC3)ccc21`, for which the activity change, positive = activation is -44.7%.

As for `COc1ccc(-n2ncc3c(SCC(=O)N4CCN(c5ccccc5OC)CC4)ncnc32)cc1`, the “activity change, positive = activation” value was inactive: -45.2%.

For the compound `COc1ccc(CCNC(=O)COc2ccc(S(=O)(=O)NC(C)C)cc2)cc1OC`, the activity change, positive = activation is -30.3%.

Take `COC(=O)c1c(F)c(F)c(N2CCOCC2)c(F)c1F`: the activity change, positive = activation was found to be 75.8%.

For the compound `Cc1sc2nc3n(c(=O)c2c1C)CCCS3`, the activity change, positive = activation was determined as 73.7%.

Take `CC(C)(C)NCCCCOc1ccccc1F`: the activity change, positive = activation stood at 45.5%.

As for `Cc1cc(N/N=C/c2ccccc2Cl)nc(NCc2ccccc2)n1`, the “activity change, positive = activation” value was inactive: -31%.

For `Cc1cc(NC(=O)c2ccc(Cl)cc2)c(C)cc1O`, the activity change, positive = activation was determined as 33%.

In the case of `CCOC(=O)C1=C(CN2CCN(c3cc(C)ccc3C)CC2)NC(=O)NC1c1ccc(Cl)cc1` (centres undefined), the “activity change, positive = activation” value is inactive: -49.6%.

Turning to `Cn1ncc2nc[nH]c(=O)c21`, the activity change, positive = activation is 37.9%.

Turning to `Cc1cc(SC(C)C(=O)Nc2ncc(Cl)cc2Cl)nc2ccccc12` (centres undefined), the Potency was active: 3.55 µM.

As for `Cc1ccc(C(=O)Nc2onc3c2CCCC3)cc1`, the Potency was active: 2.51 µM.

As for `O=C(c1cc(-c2ccc(Cl)c(Cl)c2)on1)N1CCCCC1`, the Potency was active: 22.4 µM.

Regarding `Cc1noc(NS(=O)(=O)c2ccc(N/C=C/C(=O)c3ccc(F)cc3)cc2)c1C`, the “activity change, positive = activation” value was inactive: -27%.

Regarding `CCOC(=O)CSc1nnc(-c2ccc(S(=O)(=O)N3CCOCC3)cc2)n1-c1ccccc1`, the activity change, positive = activation was 31.6%.

As to `Cc1cc(Oc2ccc(=O)n(C)n2)nc(Oc2ccc(=O)n(C)n2)n1`, the activity change, positive = activation was found to be 43.5%.
